# No constants are given. Whether binding was seen depends on the method and setting. In cells and extracts the contact can be indirect. Some binding calls cover weakened binding; strength is not graded here.
# The chains behind the UniProt entries cited, without tags or fusion partners.
# UniProt Q6P4S6: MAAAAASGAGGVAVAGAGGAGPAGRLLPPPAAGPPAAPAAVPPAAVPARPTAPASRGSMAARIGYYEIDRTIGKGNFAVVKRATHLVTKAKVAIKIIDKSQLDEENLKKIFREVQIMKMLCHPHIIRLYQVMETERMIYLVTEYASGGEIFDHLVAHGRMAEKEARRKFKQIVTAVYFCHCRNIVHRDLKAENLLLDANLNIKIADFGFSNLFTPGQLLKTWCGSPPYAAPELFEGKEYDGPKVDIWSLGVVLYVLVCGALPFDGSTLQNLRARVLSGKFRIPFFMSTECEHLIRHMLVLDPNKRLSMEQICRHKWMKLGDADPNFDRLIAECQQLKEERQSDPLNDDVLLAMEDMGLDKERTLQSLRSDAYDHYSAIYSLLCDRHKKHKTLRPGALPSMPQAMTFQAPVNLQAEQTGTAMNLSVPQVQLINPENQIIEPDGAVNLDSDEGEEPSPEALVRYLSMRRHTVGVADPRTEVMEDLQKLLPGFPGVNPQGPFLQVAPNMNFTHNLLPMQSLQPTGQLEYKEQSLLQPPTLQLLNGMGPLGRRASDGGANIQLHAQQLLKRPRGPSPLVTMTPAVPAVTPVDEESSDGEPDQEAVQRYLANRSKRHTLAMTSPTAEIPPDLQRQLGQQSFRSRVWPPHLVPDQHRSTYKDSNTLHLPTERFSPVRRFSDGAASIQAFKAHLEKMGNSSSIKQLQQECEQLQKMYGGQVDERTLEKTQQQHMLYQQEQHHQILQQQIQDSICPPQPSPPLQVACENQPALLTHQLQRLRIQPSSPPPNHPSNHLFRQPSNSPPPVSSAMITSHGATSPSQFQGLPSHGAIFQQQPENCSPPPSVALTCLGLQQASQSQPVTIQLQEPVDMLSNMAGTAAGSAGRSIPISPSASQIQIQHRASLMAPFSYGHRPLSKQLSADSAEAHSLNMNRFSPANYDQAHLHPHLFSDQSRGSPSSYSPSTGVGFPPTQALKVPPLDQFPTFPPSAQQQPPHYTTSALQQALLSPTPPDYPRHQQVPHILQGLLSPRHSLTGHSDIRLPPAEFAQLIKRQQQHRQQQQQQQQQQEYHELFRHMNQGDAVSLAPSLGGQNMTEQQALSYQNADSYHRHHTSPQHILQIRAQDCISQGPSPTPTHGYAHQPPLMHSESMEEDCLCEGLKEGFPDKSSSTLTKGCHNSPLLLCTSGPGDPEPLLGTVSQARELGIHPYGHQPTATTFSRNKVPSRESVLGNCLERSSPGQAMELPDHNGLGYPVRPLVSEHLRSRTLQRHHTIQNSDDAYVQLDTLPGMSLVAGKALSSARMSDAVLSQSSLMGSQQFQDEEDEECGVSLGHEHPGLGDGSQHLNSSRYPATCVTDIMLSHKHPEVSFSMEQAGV
# Columns and labels:
# FLAG tagged SIK3 = FLAG tagged SIK3 (UniProt Q6P4S6); test: co-IP
# [1] = target: SIK3 (salt inducible kinase 3), endogenous, WT mouse brain (mouse (endogenous in mouse brain)) (UniProt Q6P4S6); test: co-IP
binding (FLAG tagged SIK3),binding [1],Substance
binds,–,HA tagged PPP3CA (from UniProt P63328 1-521) (enzyme)
–,binds,"PPP3CA, catalytic subunit of calcineurin (endogenous, mouse brain) (from UniProt P63328 1-521) (enzyme)"

# From paper doi:10.1101/2023.06.19.545643
